Assay results as given in the supplement of paper PMC12889115.
Some of the results follow. These are raw signals, not scaled to a control.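 In the initial screen, polymyxin B was used at a concentration that permeabilizes Salmonella's outer membrane but not its inner membrane. Maximum growth was set by DMSO wells with or without polymyxin B. Since plates varied, data were ranked per plate, and compounds giving the lowest OD600 advanced as hits.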

System: Salmonella enterica serovar Typhimurium SL1344
Assay: bacterial growth OD600 after 18 h with compound and polymyxin B; higher = more bacterial growth (less inhibition)
Conditions: 50 µM, Mueller-Hinton broth

SMILES	bacterial growth OD600 (polymyxin B 0.75 µg/mL)	bacterial growth OD600 (polymyxin B 1 µg/mL)
CCO[C@H]1[C@H](NC(=O)c2ccco2)c2ccccc2C12CCN(C(=O)Cc1nonc1C)CC2	0.891	
CCc1ocnc1C(=O)NCc1cccnc1N1CCN(C)CC1	0.855	
CN(Cc1ccccc1)c1ncccc1CNC(=O)C1CC(=O)N(C2CC2)C1 (centres undefined)		0.843
O=C(c1ccc(Cl)cc1)N1CCC2(CCCN(Cc3cccnc3)C2=O)C1 (centres undefined)		0.908
O=C1CCC(CCNCc2cc3c(cc2Cl)OCO3)N1CC1C2CC3CC(C2)CC1C3 (centres undefined)	0.002	
CCOC(=O)C1(CCCc2ccccc2)CCCN(C(=O)CCN2CCCO2)C1 (centres undefined)		1.08
Cc1ccc(CCC(=O)N2CCC(n3nccc3NC(=O)C3CC3)CC2)cc1		1.08
Cc1ccccc1CCC1CCCN(C(=O)CCc2cnccn2)C1 (centres undefined)		1.03
COCCC(=O)N1CCC(Oc2ccc(C(=O)NC3CCCC3)cc2Cl)CC1		1.19
CCOC(=O)C1(CC2CC2)CCN(C(=O)c2ccc3nc(C)[nH]c3c2)CC1		0.815
Cc1ccc(S(=O)(=O)NCc2cccnc2Oc2ccccc2)s1		0.85
COC(=O)C1CCCCN1C(=O)c1c(OC)cc(=O)n2c1CCN(Cc1ccccc1Cl)CC2 (centres undefined)	0.828	
Cc1nc(N2CCCC(C(=O)NCCC(C)C)C2)nc2cc(S(C)(=O)=O)ccc12 (centres undefined)	0.79	
CCCCS(=O)(=O)N1CCC(C2CCN(Cc3cccnc3)CC2)C1 (centres undefined)	0.877	
O=C(NC1CC1)C1CCCN(C2CCN(C3CCCCCC3)CC2)C1 (centres undefined)	0.835	
COc1ccc(CCN2CC(NC(=O)c3ccccc3C)CC2=O)cc1 (centres undefined)		0.893
COc1ccc(OCc2cc(C(=O)NC3CCOC(C)(C)C3)n[nH]2)c(Cl)c1 (centres undefined)	0.835	
COc1cc(NC(=O)CCC2CCCN(Cc3cnc(SC)nc3)C2)cc(OC)c1 (centres undefined)		0.962
CCn1cc(CN2CCC(C(=O)Nc3cccc(-c4nnc(C)s4)c3)CC2)c(C)n1		1.04

Reprinted from the entries so far (4 entries):
SMILES	bacterial growth OD600 (polymyxin B 0.75 µg/mL)	bacterial growth OD600 (polymyxin B 1 µg/mL)
CCCCS(=O)(=O)N1CCC(C2CCN(Cc3cccnc3)CC2)C1 (centres undefined)	0.877	
O=C(NC1CC1)C1CCCN(C2CCN(C3CCCCCC3)CC2)C1 (centres undefined)	0.835	
COc1ccc(CCN2CC(NC(=O)c3ccccc3C)CC2=O)cc1 (centres undefined)		0.893
COc1ccc(OCc2cc(C(=O)NC3CCOC(C)(C)C3)n[nH]2)c(Cl)c1 (centres undefined)	0.835	
